Data as given in PubChem BioAssay AID1224830 (NIAID, 2016).
The deposit covers about 18,000 reagents; shown is an unselected part. About 2,900 of them (16%) were called active. 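Calls are made per well; low scores hint the gene aids the LPS response, high scores that it dampens it.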 Repeated entries: four replicate wells of each siRNA pool.

- Purpose: 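Regulators of TLR4 signalling towards TNF-alpha in macrophage-like cells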 (primary screen)
- Cell system: human THP-1 monocytic leukaemia cells, TNF dual-luciferase reporter clone, PMA-differentiated to macrophage-like cells
- Knock-down reagent: siRNA pool against human genes, 50 nM
- Timing: LPS for 4 h, given about 3 days after siRNA transfection
- Treatment: bacterial LPS (TLR4 ligand), 10 ng/ml
- Read-out: 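TNF firefly reporter luminescence divided by renilla, normalised to the plate median, then turned into a robust z-score for each replicate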
- Scale: TNF reporter robust z-score: higher = stronger TNF reporter response to LPS
- Call rule: 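a well is active when its z-score exceeds 2.8 or falls below -1.5; control wells carry no call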

gene	TNF reporter robust z-score	Outcome
CAPNS2 (calpain small subunit 2)	-1.2	inactive
CAPNS2 (calpain small subunit 2)	-0.66	inactive
CAPNS2 (calpain small subunit 2)	-0.73	inactive
CAPNS2 (calpain small subunit 2)	-0.32	inactive
TRNP1 (TMF1 regulated nuclear protein 1)	-0.94	inactive
TRNP1 (TMF1 regulated nuclear protein 1)	-0.54	inactive
TRNP1 (TMF1 regulated nuclear protein 1)	-1.01	inactive
TRNP1 (TMF1 regulated nuclear protein 1)	-0.95	inactive
CD300LD-AS1 (CD300LD antisense RNA 1)	0.3	inactive
CD300LD-AS1 (CD300LD antisense RNA 1)	-0.85	inactive
CD300LD-AS1 (CD300LD antisense RNA 1)	-0.26	inactive
CD300LD-AS1 (CD300LD antisense RNA 1)	0.92	inactive
RFPL4A (ret finger protein like 4A)	-0.9	inactive
RFPL4A (ret finger protein like 4A)	0.62	inactive
RFPL4A (ret finger protein like 4A)	-0.7	inactive
RFPL4A (ret finger protein like 4A)	0.48	inactive
CCL3L1 (C-C motif chemokine ligand 3 like 1)	-0.24	inactive
CCL3L1 (C-C motif chemokine ligand 3 like 1)	-0.03	inactive
CCL3L1 (C-C motif chemokine ligand 3 like 1)	0.18	inactive
CCL3L1 (C-C motif chemokine ligand 3 like 1)	3.25	active
TMEM45B (transmembrane protein 45B)	-0.59	inactive
TMEM45B (transmembrane protein 45B)	-0.26	inactive
TMEM45B (transmembrane protein 45B)	-0.37	inactive
TMEM45B (transmembrane protein 45B)	-0.89	inactive
ARL2BP (ARF like GTPase 2 binding protein)	1.16	inactive
ARL2BP (ARF like GTPase 2 binding protein)	0.68	inactive
ARL2BP (ARF like GTPase 2 binding protein)	-0.45	inactive
ARL2BP (ARF like GTPase 2 binding protein)	0.95	inactive
ARHGAP22 (Rho GTPase activating protein 22)	-0.65	inactive
ARHGAP22 (Rho GTPase activating protein 22)	-0.6	inactive
ARHGAP22 (Rho GTPase activating protein 22)	0.14	inactive
ARHGAP22 (Rho GTPase activating protein 22)	-0.09	inactive
UBXN11 (UBX domain protein 11)	-0.74	inactive
UBXN11 (UBX domain protein 11)	-1.04	inactive
UBXN11 (UBX domain protein 11)	-0.69	inactive
UBXN11 (UBX domain protein 11)	-1.48	inactive
ADAMTS18 (ADAM metallopeptidase with thrombospondin type 1 motif 18)	-0.18	inactive
ADAMTS18 (ADAM metallopeptidase with thrombospondin type 1 motif 18)	-0.54	inactive
ADAMTS18 (ADAM metallopeptidase with thrombospondin type 1 motif 18)	-0.67	inactive
ADAMTS18 (ADAM metallopeptidase with thrombospondin type 1 motif 18)	1.48	inactive

5 entries from above in another layout:
CCL3L1 (C-C motif chemokine ligand 3 like 1) | TNF reporter robust z-score: -0.24; Outcome: inactive
CCL3L1 (C-C motif chemokine ligand 3 like 1) | TNF reporter robust z-score: -0.03; Outcome: inactive
CCL3L1 (C-C motif chemokine ligand 3 like 1) | TNF reporter robust z-score: 0.18; Outcome: inactive
CCL3L1 (C-C motif chemokine ligand 3 like 1) | TNF reporter robust z-score: 3.25; Outcome: active
TMEM45B (transmembrane protein 45B) | TNF reporter robust z-score: -0.59; Outcome: inactive

Continued:
gene	TNF reporter robust z-score	Outcome
SERPINA4 (serpin family A member 4)	-1.13	inactive
SERPINA4 (serpin family A member 4)	-1.79	active
SERPINA4 (serpin family A member 4)	-1.98	active
SERPINA4 (serpin family A member 4)	-1.84	active
RAB11A (RAB11A, member RAS oncogene family)	-0.21	inactive
RAB11A (RAB11A, member RAS oncogene family)	-0.96	inactive
RAB11A (RAB11A, member RAS oncogene family)	0.3	inactive
RAB11A (RAB11A, member RAS oncogene family)	-0.43	inactive
TMEM167B (transmembrane protein 167B)	-0.24	inactive
TMEM167B (transmembrane protein 167B)	-0.82	inactive
TMEM167B (transmembrane protein 167B)	-0.98	inactive
TMEM167B (transmembrane protein 167B)	-0.13	inactive
GSK3A (glycogen synthase kinase 3 alpha)	-1.6	active
GSK3A (glycogen synthase kinase 3 alpha)	-1.65	active
GSK3A (glycogen synthase kinase 3 alpha)	-0.09	inactive
GSK3A (glycogen synthase kinase 3 alpha)	-0.43	inactive
MT3 (metallothionein 3)	0.36	inactive
MT3 (metallothionein 3)	-0.32	inactive
MT3 (metallothionein 3)	-0.87	inactive
MT3 (metallothionein 3)	-0.62	inactive
RAD51C (RAD51 paralog C)	-0.57	inactive
RAD51C (RAD51 paralog C)	0.7	inactive
RAD51C (RAD51 paralog C)	1.19	inactive
RAD51C (RAD51 paralog C)	0.72	inactive
KLHL17 (kelch like family member 17)	-0.09	inactive
KLHL17 (kelch like family member 17)	-0.25	inactive
KLHL17 (kelch like family member 17)	-0.55	inactive
KLHL17 (kelch like family member 17)	-1.04	inactive
PRCC (proline rich mitotic checkpoint control factor)	0.02	inactive
PRCC (proline rich mitotic checkpoint control factor)	0.28	inactive
PRCC (proline rich mitotic checkpoint control factor)	-0.04	inactive
PRCC (proline rich mitotic checkpoint control factor)	0.74	inactive
INSL3 (insulin like 3)	0.09	inactive
INSL3 (insulin like 3)	-1.03	inactive
INSL3 (insulin like 3)	-1.29	inactive
GSTCD (glutathione S-transferase C-terminal domain containing)	0.1	inactive
GSTCD (glutathione S-transferase C-terminal domain containing)	0.74	inactive
GSTCD (glutathione S-transferase C-terminal domain containing)	2.76	inactive
GSTCD (glutathione S-transferase C-terminal domain containing)	-0.04	inactive
NABP2 (nucleic acid binding protein 2)	-0.88	inactive
NABP2 (nucleic acid binding protein 2)	0.27	inactive
NABP2 (nucleic acid binding protein 2)	0.95	inactive
NABP2 (nucleic acid binding protein 2)	0.89	inactive
ATF1 (activating transcription factor 1)	2.67	inactive
ATF1 (activating transcription factor 1)	2.72	inactive
ATF1 (activating transcription factor 1)	2.42	inactive
ATF1 (activating transcription factor 1)	3.4	active
SEC16B (SEC16 homolog B, endoplasmic reticulum export factor)	0.21	inactive
SEC16B (SEC16 homolog B, endoplasmic reticulum export factor)	0.78	inactive
SEC16B (SEC16 homolog B, endoplasmic reticulum export factor)	0.44	inactive
SEC16B (SEC16 homolog B, endoplasmic reticulum export factor)	0.45	inactive
SLC6A19	-0.01	inactive
SLC6A19	-0.88	inactive
SLC6A19	1.47	inactive
SLC6A19	1.17	inactive
LEFTY1 (left-right determination factor 1)	1.5	inactive
LEFTY1 (left-right determination factor 1)	-1.13	inactive
LEFTY1 (left-right determination factor 1)	-0.42	inactive
LEFTY1 (left-right determination factor 1)	-0.75	inactive
C16orf82 (chromosome 16 open reading frame 82)	0.14	inactive
C16orf82 (chromosome 16 open reading frame 82)	0.2	inactive
C16orf82 (chromosome 16 open reading frame 82)	-1.09	inactive
C16orf82 (chromosome 16 open reading frame 82)	2.02	inactive
ONECUT1 (one cut homeobox 1)	-0.16	inactive
ONECUT1 (one cut homeobox 1)	0.6	inactive
ONECUT1 (one cut homeobox 1)	0.94	inactive
ONECUT1 (one cut homeobox 1)	1.54	inactive
VTCN1 (V-set domain containing T cell activation inhibitor 1)	-0.06	inactive
VTCN1 (V-set domain containing T cell activation inhibitor 1)	-0.59	inactive
VTCN1 (V-set domain containing T cell activation inhibitor 1)	0.86	inactive
VTCN1 (V-set domain containing T cell activation inhibitor 1)	0.56	inactive
